Measured data: PubChem BioAssay AID1053208 (Peter MacCallum Cancer Centre, 2014)
Purpose: 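Find knock-downs that sensitise mouse osteosarcoma cells to doxorubicin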 (primary screen). Cell system: mouse osteosarcoma cells, early-passage culture from an engineered mouse model of fibroblastic bone tumour. Knock-down reagent: siRNA pool against mouse genes, 40 nM. Timing: about 120 h (48 h before drug, then 72 h with drug). Treatment: doxorubicin 100 nM for 72 h, roughly 30-40% inhibitory dose. Measurement: 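Viability read as ATP luminescence after 72 h of 100 nM doxorubicin or none, duplicate wells averaged, scaled to non-targeting siRNA, then expressed as robust z-scores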. Scale: viability z-score with doxorubicin: higher = more viable cells under doxorubicin; viability z-score without drug: higher = more viable cells with knock-down alone. Active means: 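Called active if knock-down leaves viability unchanged without drug (z within -2 to 2) but lowers it with doxorubicin (z at or under -2)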.
The whole screen tested about 17,000 reagents; shown is a random part of them. 788 of all reagents (4.7%) were called active. 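Calls rest on z-score classes alone; an extra cut-off of viability at most 70% of control was not applied to them.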 A number with no mark means an inactive call. Not all columns of the deposit are shown. Reagent sequences are not shown.

Which result is listed for Stx17 (syntaxin 17)?
combined z-score class: no change with or without drug; viability z-score with doxorubicin: 1.12; viability z-score without drug: 0.84

Which result is listed for Cdkn2aip (CDKN2A interacting protein)?
combined z-score class: no change with or without drug; viability z-score with doxorubicin: -0.45; viability z-score without drug: 1.01

For Emg1 (EMG1 N1-specific pseudouridine methyltransferase), what was measured?
combined z-score class: no change with or without drug; viability z-score with doxorubicin: -0.45; viability z-score without drug: 0.17

How did the screen score Vldlr (very low density lipoprotein receptor)?
combined z-score class: no change with or without drug; viability z-score with doxorubicin: 0.22; viability z-score without drug: 1.35

How did the screen score Ccdc51 (coiled-coil domain containing 51)?
combined z-score class: no change with or without drug; viability z-score with doxorubicin: 0; viability z-score without drug: -0.17

What did the screen give for Ubald2 (UBA-like domain containing 2)?
combined z-score class: no change with or without drug; viability z-score with doxorubicin: 1.46; viability z-score without drug: 1.85

What is on record for Tcp11l2 (t-complex 11 (mouse) like 2)?
combined z-score class: no change with or without drug; viability z-score with doxorubicin: -0.45; viability z-score without drug: 0.51

With Pmfbp1 (polyamine modulated factor 1 binding protein 1), what was measured?
combined z-score class: no change with or without drug; viability z-score with doxorubicin: 1.57; viability z-score without drug: -0.51

With Rps11 (ribosomal protein S11), what was measured?
combined z-score class: low cell count with and without drug; viability z-score with doxorubicin: -6.97; viability z-score without drug: -6.41

With Cd177 (CD177 antigen), how do the results read?
combined z-score class: no change with or without drug; viability z-score with doxorubicin: -1.12; viability z-score without drug: 1.35

With Ezh1 (enhancer of zeste 1 polycomb repressive complex 2 subunit), how do the results read?
combined z-score class: no change with or without drug; viability z-score with doxorubicin: 1.8; viability z-score without drug: 1.52

What is on record for Serpini1 (serine (or cysteine) peptidase inhibitor, clade I, member 1)?
combined z-score class: no change with or without drug; viability z-score with doxorubicin: 1.57; viability z-score without drug: 1.18

What did the screen give for Pudp (pseudouridine 5'-phosphatase)?
combined z-score class: no change with or without drug; viability z-score with doxorubicin: 0.67; viability z-score without drug: 0.84

With Cyp2g1 (cytochrome P450, family 2, subfamily g, polypeptide 1), what does the deposit list?
combined z-score class: no change with or without drug; viability z-score with doxorubicin: -0.67; viability z-score without drug: 0.51

With Il10rb (interleukin 10 receptor, beta), what does the deposit list?
combined z-score class: no change with or without drug; viability z-score with doxorubicin: 0.9; viability z-score without drug: 0.34

Which result is listed for Nudt9 (nudix hydrolase 9)?
combined z-score class: high cell count without drug only; viability z-score with doxorubicin: 1.12; viability z-score without drug: 2.02

With 1700082M22Rik (RIKEN cDNA 1700082M22 gene), what does the deposit list?
combined z-score class: no change with or without drug; viability z-score with doxorubicin: -0.67; viability z-score without drug: 1.18

What did the screen give for 2410002F23Rik (RIKEN cDNA 2410002F23 gene)?
combined z-score class: no change with or without drug; viability z-score with doxorubicin: 0.67; viability z-score without drug: 1.18

For Tes (testin LIM domain protein), what does the deposit list?
combined z-score class: no change with or without drug; viability z-score with doxorubicin: -0.67; viability z-score without drug: 0.84

Which result is listed for Sox8 (SRY (sex determining region Y)-box 8)?
combined z-score class: no change with or without drug; viability z-score with doxorubicin: 0.22; viability z-score without drug: 0

What did the screen give for Acyp1 (acylphosphatase 1)?
combined z-score class: no change with or without drug; viability z-score with doxorubicin: 0.22; viability z-score without drug: 0.51

With Rrp12 (ribosomal RNA processing 12 homolog), how do the results read?
combined z-score class: no change with or without drug; viability z-score with doxorubicin: 0; viability z-score without drug: -0.84

How did the screen score Nipsnap2 (nipsnap homolog 2)?
combined z-score class: no change with or without drug; viability z-score with doxorubicin: -0.9; viability z-score without drug: -0.17

For Ctsb (cathepsin B), how do the results read?
combined z-score class: no change with or without drug; viability z-score with doxorubicin: 0; viability z-score without drug: -0.84

For Lzts3 (leucine zipper, putative tumor suppressor family member 3), how do the results read?
combined z-score class: no change with or without drug; viability z-score with doxorubicin: 0.67; viability z-score without drug: 0.84

How did the screen score Mrpl1 (mitochondrial ribosomal protein L1)?
combined z-score class: no change with or without drug; viability z-score with doxorubicin: 0.56; viability z-score without drug: 0.67

For Or4k15b (olfactory receptor family 4 subfamily K member 15B), what does the deposit list?
combined z-score class: no change with or without drug; viability z-score with doxorubicin: -0.67; viability z-score without drug: 0.51

What is on record for Egln3 (egl-9 family hypoxia-inducible factor 3)?
combined z-score class: low cell count with doxorubicin only (active); viability z-score with doxorubicin: -3.37; viability z-score without drug: 1.01

3 entries from above, showing only “viability z-score with doxorubicin”:
Cyp2g1 (cytochrome P450, family 2, subfamily g, polypeptide 1) = -0.67
Il10rb (interleukin 10 receptor, beta) = 0.9
Nudt9 (nudix hydrolase 9) = 1.12
